Results as given in PubChem BioAssay AID2718 (Broad Institute, 2010).
In all, about 320,000 compounds went through this assay and about 480 (0.15%) were called active. This list was built around the results that the source calls inconclusive (neither active nor inactive); the mix of calls is not that of the screen. Cut-off read from the data, not from the text of the source: active = inhibition above about 26% (passing the limit was not always enough); inconclusive = no clear call, values can overlap the other calls.

Chains of the proteins cited; added tags and fusions are not shown. Lines headed by an entry give the natural chain unless they say otherwise; changes in a name come on top.
UniProt O15379: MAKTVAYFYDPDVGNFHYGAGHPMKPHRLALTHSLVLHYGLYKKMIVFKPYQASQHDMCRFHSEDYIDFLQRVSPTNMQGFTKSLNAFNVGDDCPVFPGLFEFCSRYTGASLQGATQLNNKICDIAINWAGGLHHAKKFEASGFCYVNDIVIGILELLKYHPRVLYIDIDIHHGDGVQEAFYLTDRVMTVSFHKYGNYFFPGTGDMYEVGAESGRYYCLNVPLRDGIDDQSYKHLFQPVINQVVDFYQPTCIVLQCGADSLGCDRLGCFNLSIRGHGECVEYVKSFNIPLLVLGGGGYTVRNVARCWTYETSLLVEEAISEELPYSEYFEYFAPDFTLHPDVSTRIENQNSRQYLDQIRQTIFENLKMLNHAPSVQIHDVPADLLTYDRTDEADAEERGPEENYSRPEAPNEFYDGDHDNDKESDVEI

Biological target: Histone deacetylase 3 (Homo sapiens) (UniProt O15379)
Assay: HDAC3 deacetylase inhibitors, primary screen, biochemical, fluorescence, cell-free homogeneous (AID 2718)
Conditions: recombinant HDAC3, fluorogenic peptide/trypsin coupled, at 8.3 µM, stronger effect = higher value

Question: For `CCOc1ccc(OCC(=O)Nc2ccccc2C(F)(F)F)cc1`, which inhibition is on record?
Answer: inconclusive: 31.5%

Question: `COCC(C)NC(=O)c1cccc([N+](=O)[O-])c1` (configuration not stated) was tested. Which inhibition did it give?
Answer: inactive: -0.605%

Question: How did the inhibition turn out when `CN(Cc1cc2ccccc2[nH]c1=O)S(C)(=O)=O` was run?
Answer: inactive: -10%

Question: Which inhibition does the source give for `O=c1[nH]c(SCc2ccc(Cl)cc2)nc2ccsc12` here?
Answer: inactive: 1.39%

Question: `Cc1[nH]c(=S)[nH]c(=O)c1Cc1ccccc1` was tested. Which inhibition did it give?
Answer: inactive: 1.13%

Question: Which inhibition does the source give for `Cc1ccc(C(=O)Nc2c3c(nn2-c2ccccc2)CS(=O)(=O)C3)cc1C` here?
Answer: inconclusive: 18%

Question: `O=C(NCc1ccccc1)c1cc(-c2ccncc2)nc2ccc(S(=O)(=O)N3CCOCC3)cc12` was tested. Which inhibition did it give?
Answer: inconclusive: 17%

Question: `Cc1c(NC(=O)/C(C#N)=C/c2cccs2)c(=O)n(-c2ccccc2)n1C` was tested. Which inhibition did it give?
Answer: inconclusive: 33.5%

Question: For `COc1ccccc1C(O)P(=O)(OC(C)C)c1ccc(N(C)C)cc1` (configuration not stated), which inhibition is on record?
Answer: inconclusive: 32.5%

Question: With `C=CC[C@@H](CC(=O)N[C@@H](CO)Cc1ccccc1)C(=O)N[C@H](COC(=O)[C@@H](CC=C)CC(=O)OC(C)(C)C)Cc1c[nH]c2ccccc12` as the compound, how does the inhibition read?
Answer: active: 36.6%

Question: How did the inhibition turn out when `CSc1nc(C)cc(SCC(=O)Nc2ccccc2)n1` was run?
Answer: inconclusive: 15.8%

Question: `CCCCc1cc(=O)oc2cc(C)cc(OC(C)C(=O)NCc3ccccn3)c12` (configuration not stated) was tested. Which inhibition did it give?
Answer: inconclusive: -0.0441%

Question: For `Nc1nc(CSc2nc3ccccc3[nH]2)nc(N2CCOCC2)n1`, which inhibition is on record?
Answer: inactive: -5.18%

Question: With `N#CC1=C(N)OC2=C(CC/C2=C\c2ccccc2Cl)C1c1ccccc1Cl` (configuration not stated) as the compound, how does the inhibition read?
Answer: inactive: -7.5%

Question: With `CCOC(=O)c1ccc(Oc2nc(NC)nc(Nc3ccccc3)n2)cc1` as the compound, how does the inhibition read?
Answer: inconclusive: 17.4%

Question: Which inhibition does the source give for `O=C(Cc1nc2ccccc2[nH]1)N/N=C/c1ccccc1` here?
Answer: inconclusive: 16.9%

Question: For `O=C(Cc1ccsc1-c1ccccc1)NO`, which inhibition is on record?
Answer: inconclusive: 25.5%

Question: `COc1cc2c(cc1OC)C(C(=O)Nc1cccc(C)n1)C(c1cccnc1)N(C)C2=O` (configuration not stated) was tested. Which inhibition did it give?
Answer: inconclusive: 26.5%

Question: How did the inhibition turn out when `Cc1ccc(S(=O)(=O)N2CCCCC2)cc1NC(=S)NC(=O)c1ccco1` was run?
Answer: inconclusive: 18.4%

Question: Which inhibition does the source give for `CCN(CC)CCNC(=O)c1ccc(NC(=O)c2c(F)cccc2Cl)cc1` here?
Answer: inconclusive: 24.3%

Question: For `CC1CCC2(CC1)NC(=O)N(CC(=O)c1cccn1C)C2=O` (configuration not stated), which inhibition is on record?
Answer: inconclusive: 28.9%

Question: With `CCOc1ccc(CCNC(=O)COC(=O)/C=C/c2ccccc2)cc1OCC` as the compound, how does the inhibition read?
Answer: inconclusive: 17.7%

Question: `Cn1c(C2=C(O)CN(c3ccccc3)C2=N)nc2ccccc21` was tested. Which inhibition did it give?
Answer: inconclusive: 12.7%

Question: Which inhibition does the source give for `COc1ccccc1NC1C=CS(=O)(=O)C1` (configuration not stated) here?
Answer: inactive: -14.7%

Question: For `O=C(CN1C(=O)C2C3C=CC(C3)C2C1=O)Nc1ccc2c(c1)OCCO2` (configuration not stated), which inhibition is on record?
Answer: inconclusive: 14.4%

Question: `COc1ccc(C(=O)N2CC3(CC(c4ccc(Cl)cc4)=NO3)C[C@H]2C(=O)NCC(N)=O)cc1` (some centres not stated) was tested. Which inhibition did it give?
Answer: inconclusive: 11.3%

Question: `O=C(CSCc1ccco1)Nc1cc(C(F)(F)F)ccc1N1CCOCC1` was tested. Which inhibition did it give?
Answer: inconclusive: 22.7%

Question: `O=C(CN1CCC(C(=O)c2ccc3c(c2)OCCO3)CC1)NCc1ccccc1` was tested. Which inhibition did it give?
Answer: inconclusive: 17.7%

Question: How did the inhibition turn out when `Cc1cc(C(=O)CCC(=O)NCC2COc3ccccc3O2)c(C)s1` (configuration not stated) was run?
Answer: inconclusive: 24.6%

Question: `Cc1ccc(N(CC(=O)N/N=C/c2cccc(Br)c2)S(C)(=O)=O)cc1` was tested. Which inhibition did it give?
Answer: inactive: 3.99%

Question: How did the inhibition turn out when `O=C(c1ccncc1)N1CCN(c2ccc(F)cc2)CC1` was run?
Answer: inactive: -0.292%

Question: For `Cc1cc2[nH]c3c(c[n+](C)c4ccccc34)c2cc1C`, which inhibition is on record?
Answer: inactive: 1.59%

Question: Which inhibition does the source give for `CS(=O)(=O)N(CC(=O)N1CCC(C(N)=O)CC1)c1ccc(Cl)c(C(F)(F)F)c1` here?
Answer: inconclusive: 17.5%

Question: With `COc1cccc(C(=O)Nc2ccc(S(=O)(=O)Nc3cc(C)nc(C)n3)cc2)c1` as the compound, how does the inhibition read?
Answer: inconclusive: 18%

Question: Which inhibition does the source give for `c1ccc(CNc2ncnc3sccc23)cc1` here?
Answer: inconclusive: 22%

Question: `CN(C)S(=O)(=O)c1cccc(NC(=O)c2cccc(S(=O)(=O)N3CCCCC3)c2)c1` was tested. Which inhibition did it give?
Answer: inconclusive: 21.7%

Question: Which inhibition does the source give for `Nc1cc(S(=O)(=O)N2CCCCC2)ccc1Oc1ccc(Cl)cc1` here?
Answer: inactive: -3.23%

Question: Which inhibition does the source give for `OC(COC(c1ccc(Cl)cc1)c1ccc(Cl)cc1)CN1CCN(c2ccccn2)CC1` (configuration not stated) here?
Answer: inconclusive: 26.3%

Question: How did the inhibition turn out when `Cc1cccc(NC(=O)NNC(=O)c2ccccn2)c1` was run?
Answer: inconclusive: 26.6%

Question: With `COc1cc(NC(=O)Cc2c(C(=O)O)n(C)c3ccccc23)cc(OC)c1OC` as the compound, how does the inhibition read?
Answer: inconclusive: 12.4%

Question: How did the inhibition turn out when `CN1C2CCC1CC(NS(=O)(=O)c1cccc(C(F)(F)F)c1)C2` (configuration not stated) was run?
Answer: inconclusive: 21%

Question: For `CCOC(=O)C[N+](C)(C)CCOC1CC2CCC1(C)C2(C)C` (configuration not stated), which inhibition is on record?
Answer: inactive: 0.658%

Question: Which inhibition does the source give for `Cc1cc(Nc2ccccc2)n(-c2ccccc2)n1` here?
Answer: inactive: 1.99%

Question: How did the inhibition turn out when `Cc1ccc(-n2nc(CC#N)c(C#N)c2N)cc1Cl` was run?
Answer: inactive: 5.59%

Question: How did the inhibition turn out when `CCOc1ccc(-c2noc(CCC(=O)NC3CCCCC3)n2)cc1OC` was run?
Answer: inconclusive: 21%

Question: `CC1=C(C(=O)OC(C)C)C(c2c[nH]c3ccccc23)n2ncnc2N1` (configuration not stated) was tested. Which inhibition did it give?
Answer: inconclusive: 15.5%

Question: Which inhibition does the source give for `Cc1cccc(NS(=O)(=O)c2ccc(C(=O)NCC(c3ccccc3)N(C)C)cc2)c1C` (configuration not stated) here?
Answer: inactive: 2.34%

Question: How did the inhibition turn out when `CCOc1ccc(-c2ncncc2-c2ccc(OC)cc2)c(O)c1` was run?
Answer: inconclusive: 15.3%

Question: For `S=C(NC1CCCCC1)N(CCc1ccccc1)CCc1ccccc1`, which inhibition is on record?
Answer: inconclusive: 12.6%

Question: For `CNC(=S)N1C2CCC1CC(NC(=O)NC13CC4CC(CC(C4)C1)C3)C2` (configuration not stated), which inhibition is on record?
Answer: inconclusive: 12.8%

Question: With `Cc1ccc(-c2nc(-c3ccncc3)no2)c(C)c1` as the compound, how does the inhibition read?
Answer: inconclusive: 31.8%

Question: How did the inhibition turn out when `Cc1nn(CC(=O)Nc2ccc3c(c2)nc(CN2CCCC2)n3C)c(=O)c2ccccc12` was run?
Answer: inconclusive: 26.6%

Question: How did the inhibition turn out when `C=CCCCCCCCCc1nc(=S)[nH][nH]1` was run?
Answer: inconclusive: 19.8%

Question: `COc1cc(/C=N/NC(=O)/C(=C\c2ccc3c(c2)OCO3)NC(=O)c2ccccc2)ccc1O` was tested. Which inhibition did it give?
Answer: inconclusive: 8.8%

Question: For `COc1cc2[nH]c(=O)n(CCCCCC(=O)N3CCN(c4ccccn4)CC3)c(=O)c2cc1OC`, which inhibition is on record?
Answer: inactive: -1.75%

Question: Which inhibition does the source give for `COc1ccc2c(COC(=O)CC3Sc4ccccc4NC3=O)cc(=O)oc2c1` (configuration not stated) here?
Answer: inactive: -2.08%

Question: `CCC(C(=O)OCC(=O)N1CCN(S(=O)(=O)c2ccc(C)cc2C)CC1)c1ccccc1` (configuration not stated) was tested. Which inhibition did it give?
Answer: inactive: 4.23%
